The supplement of paper PMC11732987, “Enantioselective OTUD7B fragment discovery through chemoproteomics screening and high-throughput optimisation” (Communications Chemistry, 2025)
The list shows a part of the results. The data scatter; read single values as rough.

Protein sequences, listed by entry. Tags and fused reporters are not part of them. Lines headed by an entry give the natural chain unless they say otherwise; changes in a name come on top. Residues count along the entry.
UniProt Q7L266: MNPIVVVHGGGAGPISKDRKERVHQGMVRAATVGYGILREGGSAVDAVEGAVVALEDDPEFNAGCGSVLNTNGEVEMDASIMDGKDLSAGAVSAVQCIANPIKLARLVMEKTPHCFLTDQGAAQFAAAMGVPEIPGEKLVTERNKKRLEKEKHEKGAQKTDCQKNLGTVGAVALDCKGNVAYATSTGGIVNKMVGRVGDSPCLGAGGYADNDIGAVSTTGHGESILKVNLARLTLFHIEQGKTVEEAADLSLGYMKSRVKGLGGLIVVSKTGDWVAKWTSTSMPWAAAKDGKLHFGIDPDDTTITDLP
UniProt Q13315: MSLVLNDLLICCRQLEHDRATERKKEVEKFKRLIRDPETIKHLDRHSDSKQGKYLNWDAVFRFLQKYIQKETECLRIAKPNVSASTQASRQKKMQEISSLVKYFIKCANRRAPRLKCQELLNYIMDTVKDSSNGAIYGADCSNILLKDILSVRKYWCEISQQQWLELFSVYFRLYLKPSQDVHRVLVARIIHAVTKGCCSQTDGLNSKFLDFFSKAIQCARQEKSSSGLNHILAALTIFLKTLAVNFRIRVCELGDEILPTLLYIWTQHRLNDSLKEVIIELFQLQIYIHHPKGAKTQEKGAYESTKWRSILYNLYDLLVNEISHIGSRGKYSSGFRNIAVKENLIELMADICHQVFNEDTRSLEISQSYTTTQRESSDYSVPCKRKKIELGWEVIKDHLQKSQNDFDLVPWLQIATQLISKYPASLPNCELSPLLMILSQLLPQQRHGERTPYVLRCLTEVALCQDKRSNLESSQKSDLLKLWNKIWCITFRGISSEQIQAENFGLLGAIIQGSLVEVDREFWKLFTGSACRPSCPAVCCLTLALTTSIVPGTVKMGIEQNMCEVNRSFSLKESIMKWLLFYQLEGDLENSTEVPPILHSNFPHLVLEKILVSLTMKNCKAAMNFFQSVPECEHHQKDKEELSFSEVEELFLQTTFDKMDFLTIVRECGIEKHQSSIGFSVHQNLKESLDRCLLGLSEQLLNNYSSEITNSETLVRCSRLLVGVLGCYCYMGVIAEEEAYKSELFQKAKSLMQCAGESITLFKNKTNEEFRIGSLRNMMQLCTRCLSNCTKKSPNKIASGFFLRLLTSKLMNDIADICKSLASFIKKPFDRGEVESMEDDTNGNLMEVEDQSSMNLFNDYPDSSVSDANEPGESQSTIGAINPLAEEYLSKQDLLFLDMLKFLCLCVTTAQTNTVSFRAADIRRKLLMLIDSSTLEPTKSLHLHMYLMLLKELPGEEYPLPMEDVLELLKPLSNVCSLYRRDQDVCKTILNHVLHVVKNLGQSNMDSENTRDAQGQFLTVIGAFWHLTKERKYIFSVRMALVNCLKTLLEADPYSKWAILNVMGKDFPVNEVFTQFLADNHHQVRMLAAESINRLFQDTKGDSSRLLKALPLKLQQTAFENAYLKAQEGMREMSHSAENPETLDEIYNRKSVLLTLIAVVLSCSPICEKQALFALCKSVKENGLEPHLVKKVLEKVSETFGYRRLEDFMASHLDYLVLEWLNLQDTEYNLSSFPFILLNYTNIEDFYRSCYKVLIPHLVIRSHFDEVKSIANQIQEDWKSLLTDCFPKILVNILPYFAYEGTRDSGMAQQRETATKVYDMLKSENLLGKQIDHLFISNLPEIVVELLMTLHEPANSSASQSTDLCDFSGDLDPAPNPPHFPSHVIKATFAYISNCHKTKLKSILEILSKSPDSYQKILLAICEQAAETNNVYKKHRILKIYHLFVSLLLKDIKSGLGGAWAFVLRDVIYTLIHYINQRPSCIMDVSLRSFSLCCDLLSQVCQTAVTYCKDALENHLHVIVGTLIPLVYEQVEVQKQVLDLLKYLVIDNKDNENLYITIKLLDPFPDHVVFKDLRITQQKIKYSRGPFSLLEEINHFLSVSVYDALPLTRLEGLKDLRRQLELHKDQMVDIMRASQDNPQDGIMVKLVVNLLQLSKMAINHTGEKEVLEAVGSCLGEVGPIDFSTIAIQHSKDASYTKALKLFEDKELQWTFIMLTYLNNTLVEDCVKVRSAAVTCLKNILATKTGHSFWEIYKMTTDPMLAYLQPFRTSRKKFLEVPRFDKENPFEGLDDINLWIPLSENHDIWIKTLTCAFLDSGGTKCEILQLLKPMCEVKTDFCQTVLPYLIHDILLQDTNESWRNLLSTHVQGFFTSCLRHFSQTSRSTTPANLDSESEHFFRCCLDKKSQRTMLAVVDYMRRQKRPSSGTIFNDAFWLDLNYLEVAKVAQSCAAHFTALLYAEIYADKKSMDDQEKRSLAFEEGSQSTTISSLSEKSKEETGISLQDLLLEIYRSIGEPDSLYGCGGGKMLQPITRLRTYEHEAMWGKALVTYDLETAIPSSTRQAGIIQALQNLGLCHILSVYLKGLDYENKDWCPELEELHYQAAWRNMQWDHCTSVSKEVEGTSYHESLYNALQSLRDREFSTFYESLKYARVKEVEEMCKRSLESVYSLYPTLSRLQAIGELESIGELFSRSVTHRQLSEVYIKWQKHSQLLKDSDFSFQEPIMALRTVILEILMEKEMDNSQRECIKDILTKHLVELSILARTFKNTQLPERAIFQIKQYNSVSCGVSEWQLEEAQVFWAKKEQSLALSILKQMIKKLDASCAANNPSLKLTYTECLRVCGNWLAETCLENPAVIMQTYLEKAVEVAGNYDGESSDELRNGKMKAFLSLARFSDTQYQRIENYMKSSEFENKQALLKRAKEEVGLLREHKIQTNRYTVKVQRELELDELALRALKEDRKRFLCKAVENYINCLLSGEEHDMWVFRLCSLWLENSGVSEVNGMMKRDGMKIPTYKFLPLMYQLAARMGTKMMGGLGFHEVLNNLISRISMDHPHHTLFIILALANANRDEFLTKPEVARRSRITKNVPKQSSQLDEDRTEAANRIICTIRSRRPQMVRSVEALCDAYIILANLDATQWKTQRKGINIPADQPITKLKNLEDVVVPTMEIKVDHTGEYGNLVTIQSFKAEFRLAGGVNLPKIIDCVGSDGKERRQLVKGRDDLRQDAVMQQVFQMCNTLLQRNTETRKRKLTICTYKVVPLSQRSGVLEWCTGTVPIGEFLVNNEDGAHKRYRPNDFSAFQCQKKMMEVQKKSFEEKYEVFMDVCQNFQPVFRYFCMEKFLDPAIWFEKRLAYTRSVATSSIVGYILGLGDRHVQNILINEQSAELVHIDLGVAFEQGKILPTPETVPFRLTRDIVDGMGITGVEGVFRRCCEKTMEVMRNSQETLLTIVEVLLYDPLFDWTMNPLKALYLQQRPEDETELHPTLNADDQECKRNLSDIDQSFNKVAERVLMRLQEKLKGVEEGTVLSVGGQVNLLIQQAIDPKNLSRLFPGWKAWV
UniProt P54132: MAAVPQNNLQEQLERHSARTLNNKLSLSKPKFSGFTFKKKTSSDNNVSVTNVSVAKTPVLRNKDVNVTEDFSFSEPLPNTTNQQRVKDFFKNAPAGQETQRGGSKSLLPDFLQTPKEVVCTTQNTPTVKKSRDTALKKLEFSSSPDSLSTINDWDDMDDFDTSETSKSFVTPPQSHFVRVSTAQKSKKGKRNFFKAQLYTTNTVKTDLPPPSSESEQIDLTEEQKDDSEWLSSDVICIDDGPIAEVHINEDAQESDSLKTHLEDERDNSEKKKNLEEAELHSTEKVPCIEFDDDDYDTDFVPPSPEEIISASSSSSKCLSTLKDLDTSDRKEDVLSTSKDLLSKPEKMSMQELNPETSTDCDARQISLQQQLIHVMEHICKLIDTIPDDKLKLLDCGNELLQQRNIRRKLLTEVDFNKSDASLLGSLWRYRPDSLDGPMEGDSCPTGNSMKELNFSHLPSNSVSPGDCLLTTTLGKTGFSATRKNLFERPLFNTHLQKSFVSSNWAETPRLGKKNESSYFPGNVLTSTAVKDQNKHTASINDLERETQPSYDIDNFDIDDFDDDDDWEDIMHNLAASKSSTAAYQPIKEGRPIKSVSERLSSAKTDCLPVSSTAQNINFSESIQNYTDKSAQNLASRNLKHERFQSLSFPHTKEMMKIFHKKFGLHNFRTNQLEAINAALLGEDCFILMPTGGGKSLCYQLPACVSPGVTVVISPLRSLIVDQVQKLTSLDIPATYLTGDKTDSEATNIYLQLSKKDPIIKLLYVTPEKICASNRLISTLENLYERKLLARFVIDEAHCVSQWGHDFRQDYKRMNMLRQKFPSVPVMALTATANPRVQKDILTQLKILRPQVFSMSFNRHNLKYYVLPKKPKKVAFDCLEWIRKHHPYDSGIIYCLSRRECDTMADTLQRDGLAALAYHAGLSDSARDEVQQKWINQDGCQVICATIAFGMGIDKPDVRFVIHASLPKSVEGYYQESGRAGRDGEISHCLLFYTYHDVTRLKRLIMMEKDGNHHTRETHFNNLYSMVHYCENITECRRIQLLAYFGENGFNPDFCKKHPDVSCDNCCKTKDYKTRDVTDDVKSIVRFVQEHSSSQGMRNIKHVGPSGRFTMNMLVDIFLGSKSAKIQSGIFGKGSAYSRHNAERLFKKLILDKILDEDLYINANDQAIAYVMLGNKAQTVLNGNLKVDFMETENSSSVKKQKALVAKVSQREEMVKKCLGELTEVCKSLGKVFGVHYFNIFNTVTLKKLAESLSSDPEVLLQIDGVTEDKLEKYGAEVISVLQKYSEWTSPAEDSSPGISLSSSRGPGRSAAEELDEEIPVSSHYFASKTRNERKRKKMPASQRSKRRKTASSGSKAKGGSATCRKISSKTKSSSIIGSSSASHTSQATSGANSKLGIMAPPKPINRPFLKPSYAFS
UniProt Q8NBU5: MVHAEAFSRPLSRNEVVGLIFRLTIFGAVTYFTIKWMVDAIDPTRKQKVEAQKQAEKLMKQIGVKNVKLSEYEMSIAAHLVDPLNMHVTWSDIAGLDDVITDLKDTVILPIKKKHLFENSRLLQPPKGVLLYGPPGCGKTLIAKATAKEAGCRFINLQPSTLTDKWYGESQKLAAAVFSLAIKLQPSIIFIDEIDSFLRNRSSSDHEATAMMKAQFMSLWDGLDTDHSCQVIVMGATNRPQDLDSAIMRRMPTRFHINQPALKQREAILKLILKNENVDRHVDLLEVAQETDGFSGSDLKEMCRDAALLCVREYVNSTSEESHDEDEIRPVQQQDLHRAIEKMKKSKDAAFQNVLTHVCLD
UniProt Q9BYV9, 312-331: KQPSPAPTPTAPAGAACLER
UniProt Q9NSY1, 10-42: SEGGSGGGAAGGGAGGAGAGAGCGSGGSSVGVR
UniProt Q9UI12, whole entry, looked up: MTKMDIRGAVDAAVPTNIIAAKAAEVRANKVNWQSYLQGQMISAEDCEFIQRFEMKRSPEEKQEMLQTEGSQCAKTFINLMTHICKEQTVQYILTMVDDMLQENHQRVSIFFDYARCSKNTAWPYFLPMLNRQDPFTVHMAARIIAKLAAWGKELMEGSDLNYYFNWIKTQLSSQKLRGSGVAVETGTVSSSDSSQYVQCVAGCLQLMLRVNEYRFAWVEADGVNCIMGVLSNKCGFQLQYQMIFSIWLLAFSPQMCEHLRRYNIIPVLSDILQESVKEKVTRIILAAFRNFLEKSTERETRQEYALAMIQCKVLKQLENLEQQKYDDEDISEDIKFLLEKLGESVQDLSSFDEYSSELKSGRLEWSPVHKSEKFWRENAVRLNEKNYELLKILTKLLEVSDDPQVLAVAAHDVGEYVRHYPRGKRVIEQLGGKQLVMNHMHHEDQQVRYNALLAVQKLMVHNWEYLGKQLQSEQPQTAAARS
UniProt Q9Y487, whole entry, looked up: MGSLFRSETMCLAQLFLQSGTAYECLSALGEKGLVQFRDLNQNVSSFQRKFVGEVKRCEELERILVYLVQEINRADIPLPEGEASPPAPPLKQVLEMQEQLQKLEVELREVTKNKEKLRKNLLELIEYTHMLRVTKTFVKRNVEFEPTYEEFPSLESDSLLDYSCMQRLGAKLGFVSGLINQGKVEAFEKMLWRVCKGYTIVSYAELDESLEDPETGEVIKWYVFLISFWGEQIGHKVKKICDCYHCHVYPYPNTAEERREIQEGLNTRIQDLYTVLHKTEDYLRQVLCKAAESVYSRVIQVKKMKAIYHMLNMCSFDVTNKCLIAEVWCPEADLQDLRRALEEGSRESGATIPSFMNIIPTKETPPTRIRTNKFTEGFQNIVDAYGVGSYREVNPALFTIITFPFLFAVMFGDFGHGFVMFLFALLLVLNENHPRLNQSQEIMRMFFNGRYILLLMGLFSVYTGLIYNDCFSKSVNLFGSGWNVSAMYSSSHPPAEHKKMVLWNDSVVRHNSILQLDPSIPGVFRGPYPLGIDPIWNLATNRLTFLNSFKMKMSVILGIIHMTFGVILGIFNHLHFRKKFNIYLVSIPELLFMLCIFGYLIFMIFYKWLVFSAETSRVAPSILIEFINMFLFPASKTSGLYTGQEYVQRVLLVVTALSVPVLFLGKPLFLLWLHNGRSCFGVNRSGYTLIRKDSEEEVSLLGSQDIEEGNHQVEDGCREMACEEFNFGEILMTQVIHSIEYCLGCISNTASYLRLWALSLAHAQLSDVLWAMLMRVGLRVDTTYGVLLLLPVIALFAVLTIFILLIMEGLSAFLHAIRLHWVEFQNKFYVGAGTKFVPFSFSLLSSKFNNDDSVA

compound: ClCC(=O)N[C@H]1CCCc2ccccc12; experiment: log2 mean competition ratio of IA-DTB cysteine labelling (DMSO/compound) (log2 ratio); higher = stronger cysteine engagement by compound; details: 50 µM; treatment time: 4 h; cell line lysate: HEK293T
Description: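 IA-DTB competitive cysteine chemoproteomics in HEK293T RIPA lysate. Lysates were treated with compound 29 or 30 at 50 or 200 µM for 4 h, then IA-DTB (500 µM, 1 h), trypsin-digested, NeutrAvidin-enriched and analysed by diaPASEF. Competition ratio = intensity DMSO / intensity compound (n=4 treated, n=64 DMSO); binding: mean log2 CR ≥ 1 and p ≤ 0.05 plus QC filters. Target is the cysteine site.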

| Target | log2 mean competition ratio |
| --- | --- |
| ASRGL1 C97 (UniProt Q7L266) | -0.06 |
| ATM C1286 (UniProt Q13315) | 0.12 |
| ATAD2 C1261 (UniProt Q6PL18) | 0.142 |
| BLM C120 (UniProt P54132) | -0.0934 |
| ATAD1 C310 (UniProt Q8NBU5) | 0.373 |
| ATP6V0D1 C326 (UniProt P61421) | -0.171 |
| ASRGL1 C176 (UniProt Q7L266) | -0.356 |
| ATG9A C197 (UniProt Q7Z3C6) | 0.818 |
| BACH2 C328 (UniProt Q9BYV9) | -0.161 |
| ATP2C1 C669 (UniProt P98194) | -0.323 |
| BMP2K C32 (UniProt Q9NSY1) | 0.214 |
| ATP6V1A C394 (UniProt P38606) | -0.0396 |
| ATP6V1H C312 (UniProt Q9UI12) | 0.536 |
| ATG3 C182 (UniProt Q9NT62) | -0.00675 |
| BACH1 C435 (UniProt O14867) | -0.226 |
| ATP6V0A2 C680 (UniProt Q9Y487) | 0.0203 |
| BCORL1 C617 (UniProt Q5H9F3) | 0.26 |
| BACH2 C370 (UniProt Q9BYV9) | 0.0108 |
| ATR C1721 (UniProt Q13535) | 0.0835 |
| BIRC6 C3830 | -0.258 |

same assay, conditions: 200 µM; treatment time: 4 h; cell line lysate: HEK293T

| Target | log2 mean competition ratio |
| --- | --- |
| ASRGL1 C97 (UniProt Q7L266) | -0.249 |
| ATM C1286 (UniProt Q13315) | -0.252 |
| ATAD2 C1261 (UniProt Q6PL18) | 0.131 |
| BLM C120 (UniProt P54132) | -0.124 |
| ATAD1 C310 (UniProt Q8NBU5) | 0.0916 |
| ATP6V0D1 C326 (UniProt P61421) | 0.00243 |
| ASRGL1 C176 (UniProt Q7L266) | 0.13 |
| ATG9A C197 (UniProt Q7Z3C6) | -0.392 |
| BACH2 C328 (UniProt Q9BYV9) | 0.00296 |
| ATP2C1 C669 (UniProt P98194) | 0.105 |
| BMP2K C32 (UniProt Q9NSY1) | -0.572 |
| ATP6V1A C394 (UniProt P38606) | 0.024 |
| ATP6V1H C312 (UniProt Q9UI12) | 0.222 |
| ATG3 C182 (UniProt Q9NT62) | 0.105 |
| BACH1 C435 (UniProt O14867) | 0.316 |
| ATP6V0A2 C680 (UniProt Q9Y487) | 0.0499 |
| BCORL1 C617 (UniProt Q5H9F3) | -0.013 |
| BACH2 C370 (UniProt Q9BYV9) | 0.316 |
| ATR C1721 (UniProt Q13535) | 0.185 |
| BIRC6 C3830 | 0.174 |
